Reference: US6681132B1, “Sodium magnetic reasonance imaging used in diagnosing tumors and assessing response to treatment” (The Trustees of Columbia University in the City of New York, priority 1999, dated 2004)
Some of these results come from one statement about several compounds together.

Test system: PC3 cells
Experiment: Free [Nai] with SBFI/AM in 96 well plates, fluorescent plate reader
Assay type: cell-based, human
Details: 10 nM taxotere or 10 μg/ml VP-16 etoposide
Description: For ion measurements (panels C & D), plates were run on a Fluoroskan II fluorescent plate reader (Titertek) using Titertek's computer Interface. Fura II loaded wells (panel D) had measured fluorescence intensities between 15,000 and 25,000 units whereby dye free wells had values ˜100 and 500. The wells with SBFI/AM loaded cells (panel C) had intensities between 4,000 and 9,000 units. Two excitation values were used for each well measurement. Ratios were derived by dividing fluorescent intensity at 345 nm excitation by that at 390 nm, both with a 508 nm mission filter. […] For [Cai] experiments a second means of determining background fluorescence, which gave statistically similar results, was exposure to 6 mM MnCl2 following the initial measurement. […] These individual well to well ratios for each protocol grouping were averaqed and used in the statistical tests which determined whether the changes in [Nai] and [Cai] following drug application were significant. […] Rapid and large [Cai] changes were detected in each case. To derive concentration values from the fluorescence readings, different, but standard approaches (26, 73), were taken with each dye. […]
b. […] [Nai] is calculated using ratio method and in situ calibration—thus ionophores (monensin and gramidicidin) eliminate the transmembrane gradient so that [Nai] can be altered by changing [Nao]. […]

Structure (SMILES) | time by which [Nai] ratio increase was statistically significant [h]
CC(=O)O[C@@]12CO[C@@H]1C[C@H](O)[C@@]1(C)C(=O)[C@H](O)C3=C(C)[C@@H](OC(=O)[C@H](O)[C@@H](NC(=O)OC(C)(C)C)c4ccccc4)C[C@@](O)([C@@H](OC(=O)c4ccccc4)[C@H]21)C3(C)C [taxotere] | ≤ 6
COc1cc([C@@H]2c3cc4c(cc3[C@@H](O[C@@H]3O[C@@H]5CO[C@@H](C)O[C@H]5[C@H](O)[C@H]3O)[C@H]3COC(=O)[C@H]23)OCO4)cc(OC)c1O [VP-16, etoposide] | ≤ 6
